Most values lie at the floor of the assay. Slopes are relative: functional sequences can read slightly below zero.
The substances below were run on Saccharomyces cerevisiae PS128 hsf1 delta, HSF1(1-493) fusion (assay: growth estimate (transactivation domain function in HSF1 fusion, heat-shock survival) (a.u. (slope of normalised read count over time)); higher = stronger growth at 37°C, i.e. more transactivation activity). Conditions: library: random library.
PNPLHGRARATGSLMGNTDR was tested, and the growth estimate was < -0.25. In the case of YGLWWLISVGRLLFTVIAR, the growth estimate is reported as < -0.25. In the case of KKTVGWGKMSCRSRQNPRLP, the growth estimate is reported as < -0.25. For TQCRRAKH, the growth estimate was < -0.25. With LPVTCERTSQRRENGPGARL the growth estimate was < -0.25. For LVVIHAFSSMSRGSARIG, the growth estimate was < -0.25. With GERKYGRATVLPETLLLTSI the growth estimate was < -0.25. With FWEA the growth estimate was < -0.25. With ASERGGRFDGHQLPLTDLYR the growth estimate was < -0.25. For QGTQVPGYRIFSNEIGFKGR, the growth estimate was < -0.25. For SSDAAKGEWPHMKQGDLPVV, the growth estimate was < -0.25. With GGALA the growth estimate was < -0.25. KTSADKEAFCRGKRLGVS was tested, and the growth estimate was < -0.25. In the case of NVGL, the growth estimate is reported as -0.191. In the case of RLARSASGGYERSGRNQRQG, the growth estimate is reported as < -0.25. WKQPTRADRSAYCATTGLGT was tested, and the growth estimate was < -0.25. GTTSN was tested, and the growth estimate was < -0.25. With EEGTYSCGVSLRVG the growth estimate was < -0.25. In the case of TGYQGYCGTHAHKHLNAWFP, the growth estimate is reported as < -0.25. In the case of LTQSARSKGLVIPMVVGIRL, the growth estimate is reported as < -0.25. In the case of NTIDRHSWRGFSGLNALL, the growth estimate is reported as < -0.25. In the case of LAAKRGFPVIQCVSFQPHLR, the growth estimate is reported as < -0.25. In the case of VRQASFV, the growth estimate is reported as -0.243. In the case of DRCTHGCDYIRSI, the growth estimate is reported as < -0.25. With AWSVRTVLCSLGPCEGPKLR the growth estimate was < -0.25. HVKHTLGKSVRFLPFLCFPR was tested, and the growth estimate was < -0.25. In the case of GVDRVASSSTWGSEKRVDLI, the growth estimate is reported as < -0.25. For LGQVHSGWASDRIRSHQWRL, the growth estimate was < -0.25. With FGHNCSGIR the growth estimate was < -0.25. In the case of AGERRLGGN, the growth estimate is reported as < -0.25. With GGYRGESNI the growth estimate was < -0.25. For REAAMYVPCGEAYGEEREVA, the growth estimate was < -0.25. With AIRARVFLPT the growth estimate was < -0.25. In the case of RIHRSVIAFCHIYSAKAG, the growth estimate is reported as < -0.25. IVLFRVMPRWQSTAAHDGIQ was tested, and the growth estimate was < -0.25. For ITGEASPSRLMSVERMCGWS, the growth estimate was < -0.25. MVSGSNVCLSCIWSIINWPS was tested, and the growth estimate was < -0.25. For STRVGRWRQARRFRSHAVPG, the growth estimate was < -0.25. In the case of RKVAVVPVRESVFTSGDGSW, the growth estimate is reported as < -0.25. In the case of QADNDTKTENSAIRRVKMSV, the growth estimate is reported as < -0.25. With KTAACKLSLERRVRLIHLSL the growth estimate was < -0.25. GRRREQSYRRQEWYT was tested, and the growth estimate was < -0.25. In the case of LDMGCTPHFGGGVTTPGTFR, the growth estimate is reported as < -0.25. With PLGER the growth estimate was < -0.25. With GEVRS the growth estimate was < -0.25. In the case of QGTERVQKRFMR, the growth estimate is reported as < -0.25. With RSRYCRRILQCTWCYGFGEY the growth estimate was < -0.25. For MTRRPGARVYKRLGV, the growth estimate was < -0.25. For GDPCASKLDTELPRCCSEDL, the growth estimate was < -0.25. In the case of LAPTSKGNAKGWGMVGALTI, the growth estimate is reported as < -0.25. In the case of CLRGSCDVAEEGEGRSIGIC, the growth estimate is reported as < -0.25. In the case of IGW, the growth estimate is reported as 0.0112. With LLLIESDRAKASEGRAAPPA the growth estimate was < -0.25. GHV was tested, and the growth estimate was < -0.25. QKDN was tested, and the growth estimate was < -0.25. ISRPTGQLTPSRSQRIASCN was tested, and the growth estimate was < -0.25. In the case of PMRPATQWVWEMVPALDQAL, the growth estimate is reported as < -0.25. With IRTMESGKTNTSAYNQRISA the growth estimate was < -0.25. LCEFLPTKGS was tested, and the growth estimate was < -0.25. In the case of LRGISPREDIVS, the growth estimate is reported as < -0.25. With DNRDRYFLARRSIELKTSAR the growth estimate was < -0.25. For LGGIFVFLVSPSNRARLLSR, the growth estimate was < -0.25. In the case of VRRPVLCQP, the growth estimate is reported as < -0.25. In the case of RGECTRDLV, the growth estimate is reported as < -0.25. For PHFVIMGHRARGSSQYKAQG, the growth estimate was < -0.25. VLRMAKRMLLDSNAQFRNRA was tested, and the growth estimate was < -0.25. QGFGRLKLCTCCQCP was tested, and the growth estimate was < -0.25. In the case of LDPCGIRSAPGHADMIQHSI, the growth estimate is reported as < -0.25. In the case of WSDDRPTHRSHSYPWGIRGP, the growth estimate is reported as < -0.25. For AIFRL, the growth estimate was < -0.25.
